The results in this text go back to article PMC11895297.

Chains of the proteins cited; added tags and fusions are not shown.
UniProt O14980: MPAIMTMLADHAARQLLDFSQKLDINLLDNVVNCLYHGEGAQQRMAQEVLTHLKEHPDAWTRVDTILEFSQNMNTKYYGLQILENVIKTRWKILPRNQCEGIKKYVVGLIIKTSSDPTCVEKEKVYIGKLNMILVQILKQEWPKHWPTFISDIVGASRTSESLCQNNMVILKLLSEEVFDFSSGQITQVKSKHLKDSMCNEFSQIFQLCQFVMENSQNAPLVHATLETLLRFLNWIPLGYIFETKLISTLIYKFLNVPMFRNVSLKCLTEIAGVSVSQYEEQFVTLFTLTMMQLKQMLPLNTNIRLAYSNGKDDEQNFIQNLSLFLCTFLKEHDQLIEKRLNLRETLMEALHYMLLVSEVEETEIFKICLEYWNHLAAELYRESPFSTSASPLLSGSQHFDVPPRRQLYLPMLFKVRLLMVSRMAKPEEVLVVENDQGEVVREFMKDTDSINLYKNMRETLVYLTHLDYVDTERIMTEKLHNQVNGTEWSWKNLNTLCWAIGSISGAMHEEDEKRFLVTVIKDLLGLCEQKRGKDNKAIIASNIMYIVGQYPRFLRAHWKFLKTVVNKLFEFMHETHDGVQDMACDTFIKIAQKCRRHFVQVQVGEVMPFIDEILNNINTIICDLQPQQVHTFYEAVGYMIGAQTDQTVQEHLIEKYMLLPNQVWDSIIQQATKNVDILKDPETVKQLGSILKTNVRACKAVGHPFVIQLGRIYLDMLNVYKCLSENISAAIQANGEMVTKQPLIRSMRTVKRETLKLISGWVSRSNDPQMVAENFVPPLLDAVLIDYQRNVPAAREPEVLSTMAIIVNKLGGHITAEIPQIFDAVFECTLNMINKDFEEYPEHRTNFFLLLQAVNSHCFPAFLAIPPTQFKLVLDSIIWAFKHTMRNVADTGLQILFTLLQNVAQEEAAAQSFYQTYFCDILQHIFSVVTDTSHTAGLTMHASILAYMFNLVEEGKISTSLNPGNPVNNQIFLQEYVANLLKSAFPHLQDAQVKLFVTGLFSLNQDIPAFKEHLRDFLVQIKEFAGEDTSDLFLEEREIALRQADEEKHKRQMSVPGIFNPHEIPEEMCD

The target of test [1] is T1, PPARα-Flag (wild type construct) (UniProt Q07869).
T1 sequence: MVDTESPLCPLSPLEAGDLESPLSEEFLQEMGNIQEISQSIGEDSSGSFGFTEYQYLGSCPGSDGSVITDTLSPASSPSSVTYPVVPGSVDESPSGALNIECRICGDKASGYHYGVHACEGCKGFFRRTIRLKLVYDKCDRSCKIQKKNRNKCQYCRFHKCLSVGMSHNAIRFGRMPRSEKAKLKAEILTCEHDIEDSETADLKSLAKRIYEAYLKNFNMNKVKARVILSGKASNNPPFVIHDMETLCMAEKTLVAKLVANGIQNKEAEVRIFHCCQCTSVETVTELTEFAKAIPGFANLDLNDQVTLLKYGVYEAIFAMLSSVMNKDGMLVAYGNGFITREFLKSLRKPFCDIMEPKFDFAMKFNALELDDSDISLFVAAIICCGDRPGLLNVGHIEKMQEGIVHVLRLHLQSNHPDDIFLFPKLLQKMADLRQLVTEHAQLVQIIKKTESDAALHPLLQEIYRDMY
Kind of test: co-IP; HepG2 cells transfected with RAN-HA or PPARα-Flag constructs, 1 mg protein immunoprecipitated with Flag/HA-beads overnight, western blot.

The target in test [2] is T2, Peroxisome proliferator-activated receptor α (endogenous) (human (endogenous in hepatoma cell lines)) (UniProt Q07869).
T2 sequence: T1 sequence
In words: co-IP; endogenous proteins in hepatoma cell lysates, IgG or specific antibodies overnight, protein G beads, western blot; also in SNU-449 with CRSP8 knockdown and MHCC97H with CRSP8 overexpression. Background: In western blotting, separated proteins are transferred to a membrane and probed.

The target in a further test is T3, Flag-GFP-PPARα (UniProt Q07869).
T3 sequence: T1 sequence
In words: co-IP; HEK293T cells overexpressing HA-GFP-RAN, Flag-GFP-PPARα and GFP-CRM1, with or without stable CRSP8 knockdown, western blot.

Results are given in words; binding and its absence hold for the method and conditions named. Binding seen in cells or lysates may run through a third protein. Some entries that bind do so weakly or less than the wild type. For part of these data: Tags and fused reporters may be left off the sequences shown.

Turning to “Chromosome maintenance region 1 (endogenous) (from UniProt O14980 1-1071)”, the binding entry in test [1] and in test [2] was “binds” in each case.
As to GFP-CRM1 (from UniProt O14980 1-1071), the binding entry with Flag-GFP-PPARα is on record as “binds”.
